No constants are given. Whether binding was seen depends on the method and setting. Some results given as binding are weak or reduced against the parent protein; the word gives no strength.

Chains of the proteins cited; added tags and fusions are not shown. Residues count along the entry.
UniProt P0AGE0, residues 2-178: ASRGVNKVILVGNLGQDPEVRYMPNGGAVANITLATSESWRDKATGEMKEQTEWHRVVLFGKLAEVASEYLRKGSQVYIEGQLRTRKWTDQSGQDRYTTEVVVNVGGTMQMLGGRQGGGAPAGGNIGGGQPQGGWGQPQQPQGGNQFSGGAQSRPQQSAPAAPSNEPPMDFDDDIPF

Experimental findings from US20210332350A1 are described below.

This experiment has as its target E. coli single-strand DNA-binding protein (SSB) (Escherichia coli) (UniProt P0AGE0). In words: inferred from the fluorescent oligo quenching assay with SSB-coated complementary oligos; no direct binding assay.

“λ β (λ Red beta, full length wild type) with N-terminal 6×His tag (from UniProt P03698 1-261)”: the binding entry was “binds”.
